PMC8835856
These are yes or no findings as the source states them, for the method shown. Binding seen in cells or lysates may run through a third protein. Some binding calls cover weakened binding; strength is not graded here.

The chains behind the UniProt entries cited, without tags or fusion partners.
UniProt P50135: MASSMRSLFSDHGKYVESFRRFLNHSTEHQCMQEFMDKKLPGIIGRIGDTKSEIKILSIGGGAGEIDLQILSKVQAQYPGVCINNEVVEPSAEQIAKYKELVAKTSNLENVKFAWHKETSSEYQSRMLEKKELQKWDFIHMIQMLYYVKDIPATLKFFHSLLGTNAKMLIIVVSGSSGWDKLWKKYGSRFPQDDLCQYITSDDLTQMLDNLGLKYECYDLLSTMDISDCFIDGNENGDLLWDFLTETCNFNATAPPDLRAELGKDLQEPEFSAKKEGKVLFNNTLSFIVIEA

Key:
[1] = biological target: human epidermal growth factor receptor 2 (human (endogenous in H441)) (UniProt P04626); experiment: co-IP; reciprocal immunoprecipitation with HNMT or HER2 antibodies from H441 cell lysate, endogenous proteins; non-denaturing lysis buffer (20 mM Tris HCl pH 8, 137 mM NaCl, 1% Nonidet P-40, 2 mM EDTA); SDS-PAGE/immunoblotting
[2] = biological target: histamine N-methyltransferase (human (endogenous in H441)) (UniProt P50135); experiment: as above

binding [1]	binding [2]	Substance
binds	–	histamine N-methyltransferase (from UniProt P50135 1-292) (enzyme)
–	binds	human epidermal growth factor receptor 2 (from UniProt P04626 23-1255)
